This passage reports IC50 results from US10596218B2, “Coix seed oil containing 16 glycerides, and pharmaceutical preparation and use thereof” (ZHEJIANG KANGLAITE GROUP CO., LTD., priority 2014, dated 2020).

This test relates to MCF-7 (human breast cancer cells). The test can be described thus: MTT inhibition of cell growth in vitro, MCF-7. It counts as cell-based. The note with it: MCF7, MCF-7, MTT, 48 h, read-out: IC50 values of samples in vitro. An excerpt:
(1) Cell lines: PANC-1 (human pancreatic cancer cells), SKOV3 (human ovarian cancer cells), MCF-7 (human breast cancer cells), Bcap-37 (human breast cancer cells), SMMC-7721 (human hepatic cancer cells), HepG-2 (human hepatic cancer cells), A549 (human lung cancer cells) and H460 (human lung cancer cells), storaged and passaged maintainably in Research and Evaluation Center for Pharmacology, Shanghai Institute of Pharmaceutical Industry;
The inhibition effects of samples on the above-mentioned cell lines were detected by using MTT method. The specific procedures were as follows: […]
(4) Cells in a logarithmic growth stage were trypsinized and washed, then re-suspended in the medium containing 10% calf serum. The number of living cells was counted in Trypan blue dye exclusion method and cell suspensions were adjusted into a density of 2×10^5 cell/ml. […]
(7) 100 μl of crystal dissolving solution was added into each well and cells were incubated continuously in the incubator overnight, so as to dissolve the resulted formazan crystals sufficiently. Then, the absorbance value was measured at 570 nm for each well.
(8) Based on absorbance values, inhibition rates on the cell growth were calculated for sample groups of various concentrations. The calculation formula was as follows: (1−mean absorbance of experimental wells/mean absorbance of control wells)×100%

≈ marks a conversion by molar mass, not a printed value.

For the compound `CC(=O)O[C@H]1C(=O)[C@@]2(C)[C@H]([C@H](OC(=O)c3ccccc3)[C@]3(O)C[C@H](OC(=O)[C@H](O)[C@@H](NC(=O)c4ccccc4)c4ccccc4)C(C)=C1C3(C)C)[C@]1(OC(C)=O)CO[C@@H]1C[C@@H]2O` [Taxol], the IC50 (in general, the concentration needed to halve the response being measured) is 0.34 µg/mL (≈ 0.398 µM).
